Protein sequences, listed by entry. Tags and fused reporters are not part of them. Lines headed by an entry give the natural chain unless they say otherwise; changes in a name come on top.
UniProt Q9BWT6: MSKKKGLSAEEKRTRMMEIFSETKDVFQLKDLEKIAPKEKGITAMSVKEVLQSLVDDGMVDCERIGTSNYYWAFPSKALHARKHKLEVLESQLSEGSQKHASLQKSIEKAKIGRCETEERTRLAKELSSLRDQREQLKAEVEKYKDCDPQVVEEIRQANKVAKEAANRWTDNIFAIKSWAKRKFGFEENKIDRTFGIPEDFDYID
UniProt Q9BV79: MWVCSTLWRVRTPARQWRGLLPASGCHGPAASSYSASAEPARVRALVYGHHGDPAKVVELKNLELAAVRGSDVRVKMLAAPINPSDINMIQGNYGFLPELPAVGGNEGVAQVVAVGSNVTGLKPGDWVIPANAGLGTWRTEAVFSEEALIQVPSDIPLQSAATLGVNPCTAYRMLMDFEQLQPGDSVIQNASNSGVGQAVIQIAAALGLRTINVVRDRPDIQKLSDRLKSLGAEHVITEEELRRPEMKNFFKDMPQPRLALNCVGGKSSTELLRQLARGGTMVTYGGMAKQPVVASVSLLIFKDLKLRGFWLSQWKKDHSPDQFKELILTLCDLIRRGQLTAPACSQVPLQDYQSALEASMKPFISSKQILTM
UniProt Q9BVC5: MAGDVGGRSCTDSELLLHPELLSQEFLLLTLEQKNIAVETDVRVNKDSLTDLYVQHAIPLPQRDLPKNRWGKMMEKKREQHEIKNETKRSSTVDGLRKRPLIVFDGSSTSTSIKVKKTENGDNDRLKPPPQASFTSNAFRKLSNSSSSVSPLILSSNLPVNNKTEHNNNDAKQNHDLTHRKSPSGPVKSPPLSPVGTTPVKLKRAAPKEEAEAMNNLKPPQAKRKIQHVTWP
UniProt Q9BQS8: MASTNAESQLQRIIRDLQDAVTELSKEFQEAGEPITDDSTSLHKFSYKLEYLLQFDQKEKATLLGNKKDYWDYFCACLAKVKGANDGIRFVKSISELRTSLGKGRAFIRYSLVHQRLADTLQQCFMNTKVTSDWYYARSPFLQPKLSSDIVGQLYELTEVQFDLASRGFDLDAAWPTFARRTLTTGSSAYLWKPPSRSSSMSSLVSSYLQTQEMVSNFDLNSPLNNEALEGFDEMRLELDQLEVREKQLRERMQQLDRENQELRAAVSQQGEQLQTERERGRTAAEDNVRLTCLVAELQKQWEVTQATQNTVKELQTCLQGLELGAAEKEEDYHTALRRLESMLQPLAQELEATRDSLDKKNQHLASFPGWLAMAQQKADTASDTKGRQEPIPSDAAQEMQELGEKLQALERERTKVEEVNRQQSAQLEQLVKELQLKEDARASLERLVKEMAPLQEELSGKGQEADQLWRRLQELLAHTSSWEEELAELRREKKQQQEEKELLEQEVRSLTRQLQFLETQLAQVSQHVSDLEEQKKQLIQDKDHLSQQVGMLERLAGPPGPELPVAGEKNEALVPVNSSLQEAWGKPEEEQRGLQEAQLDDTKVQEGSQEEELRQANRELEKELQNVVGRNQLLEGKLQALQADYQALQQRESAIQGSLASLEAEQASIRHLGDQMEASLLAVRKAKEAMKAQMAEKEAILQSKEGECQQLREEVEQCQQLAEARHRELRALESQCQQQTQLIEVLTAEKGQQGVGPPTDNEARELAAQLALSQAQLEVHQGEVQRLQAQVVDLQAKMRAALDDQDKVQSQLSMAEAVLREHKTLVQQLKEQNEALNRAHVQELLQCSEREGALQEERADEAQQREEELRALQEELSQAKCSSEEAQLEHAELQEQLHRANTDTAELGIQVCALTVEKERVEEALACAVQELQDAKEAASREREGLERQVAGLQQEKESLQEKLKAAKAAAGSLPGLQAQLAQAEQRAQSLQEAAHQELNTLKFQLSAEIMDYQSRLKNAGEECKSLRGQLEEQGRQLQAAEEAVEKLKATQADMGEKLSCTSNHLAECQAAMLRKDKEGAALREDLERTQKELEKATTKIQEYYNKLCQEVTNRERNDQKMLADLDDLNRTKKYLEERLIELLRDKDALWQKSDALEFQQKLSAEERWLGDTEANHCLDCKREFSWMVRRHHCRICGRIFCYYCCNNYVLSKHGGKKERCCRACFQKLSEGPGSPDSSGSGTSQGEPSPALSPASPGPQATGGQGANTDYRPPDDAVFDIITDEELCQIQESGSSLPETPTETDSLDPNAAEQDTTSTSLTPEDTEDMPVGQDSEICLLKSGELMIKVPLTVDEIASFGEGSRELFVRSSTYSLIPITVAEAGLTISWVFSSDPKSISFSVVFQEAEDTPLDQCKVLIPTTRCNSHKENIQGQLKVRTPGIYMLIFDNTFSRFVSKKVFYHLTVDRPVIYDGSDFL
UniProt Q9BVL2: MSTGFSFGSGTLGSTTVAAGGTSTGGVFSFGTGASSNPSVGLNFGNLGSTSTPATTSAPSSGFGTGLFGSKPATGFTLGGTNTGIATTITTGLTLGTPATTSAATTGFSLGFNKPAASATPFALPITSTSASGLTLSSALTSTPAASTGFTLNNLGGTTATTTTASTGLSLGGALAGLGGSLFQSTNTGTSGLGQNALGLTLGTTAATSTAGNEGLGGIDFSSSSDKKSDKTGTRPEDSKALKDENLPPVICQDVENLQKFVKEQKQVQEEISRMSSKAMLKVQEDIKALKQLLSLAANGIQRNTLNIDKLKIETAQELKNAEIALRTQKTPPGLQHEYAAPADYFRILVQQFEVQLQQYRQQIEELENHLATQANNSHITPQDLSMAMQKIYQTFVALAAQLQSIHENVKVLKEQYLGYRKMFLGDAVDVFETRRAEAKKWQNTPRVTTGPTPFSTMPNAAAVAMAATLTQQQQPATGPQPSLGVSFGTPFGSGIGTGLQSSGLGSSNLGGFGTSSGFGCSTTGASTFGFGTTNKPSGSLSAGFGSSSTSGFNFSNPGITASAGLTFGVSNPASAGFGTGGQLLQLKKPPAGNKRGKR
UniProt Q99622: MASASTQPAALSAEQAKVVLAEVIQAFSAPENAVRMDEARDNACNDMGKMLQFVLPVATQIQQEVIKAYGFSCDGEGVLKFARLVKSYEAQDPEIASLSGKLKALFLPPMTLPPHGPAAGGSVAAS
UniProt Q9BRA2: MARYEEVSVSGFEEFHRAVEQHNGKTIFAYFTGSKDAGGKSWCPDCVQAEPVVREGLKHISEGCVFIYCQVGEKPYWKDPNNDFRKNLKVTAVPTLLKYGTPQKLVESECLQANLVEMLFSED
UniProt Q9BRX2, whole entry: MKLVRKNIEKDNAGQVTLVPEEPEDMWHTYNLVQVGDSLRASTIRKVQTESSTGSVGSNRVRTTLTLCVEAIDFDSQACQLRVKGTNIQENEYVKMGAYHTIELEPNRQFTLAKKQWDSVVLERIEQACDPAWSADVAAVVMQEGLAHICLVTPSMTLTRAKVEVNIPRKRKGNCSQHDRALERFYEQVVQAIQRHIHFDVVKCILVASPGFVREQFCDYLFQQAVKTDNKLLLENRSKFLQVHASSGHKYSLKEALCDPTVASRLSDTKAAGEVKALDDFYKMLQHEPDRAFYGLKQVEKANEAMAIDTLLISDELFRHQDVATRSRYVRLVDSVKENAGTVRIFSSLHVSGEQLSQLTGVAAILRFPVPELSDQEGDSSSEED
UniProt Q9BSV6: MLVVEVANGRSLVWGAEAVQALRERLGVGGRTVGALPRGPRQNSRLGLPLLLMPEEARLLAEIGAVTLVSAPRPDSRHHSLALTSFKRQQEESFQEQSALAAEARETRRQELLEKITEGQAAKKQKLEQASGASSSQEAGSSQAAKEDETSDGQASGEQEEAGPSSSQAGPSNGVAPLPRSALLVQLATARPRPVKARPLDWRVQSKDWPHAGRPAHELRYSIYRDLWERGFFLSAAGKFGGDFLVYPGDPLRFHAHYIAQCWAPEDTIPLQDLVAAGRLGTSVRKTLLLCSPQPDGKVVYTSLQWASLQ
UniProt Q9BQ75: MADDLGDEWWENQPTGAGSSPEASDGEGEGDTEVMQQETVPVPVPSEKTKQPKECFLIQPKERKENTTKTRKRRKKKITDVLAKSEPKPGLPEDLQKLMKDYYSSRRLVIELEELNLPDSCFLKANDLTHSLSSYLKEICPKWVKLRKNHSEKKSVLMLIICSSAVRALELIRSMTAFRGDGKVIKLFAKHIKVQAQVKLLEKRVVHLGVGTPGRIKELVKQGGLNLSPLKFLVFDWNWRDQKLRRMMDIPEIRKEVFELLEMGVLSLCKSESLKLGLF
UniProt Q9BRZ2: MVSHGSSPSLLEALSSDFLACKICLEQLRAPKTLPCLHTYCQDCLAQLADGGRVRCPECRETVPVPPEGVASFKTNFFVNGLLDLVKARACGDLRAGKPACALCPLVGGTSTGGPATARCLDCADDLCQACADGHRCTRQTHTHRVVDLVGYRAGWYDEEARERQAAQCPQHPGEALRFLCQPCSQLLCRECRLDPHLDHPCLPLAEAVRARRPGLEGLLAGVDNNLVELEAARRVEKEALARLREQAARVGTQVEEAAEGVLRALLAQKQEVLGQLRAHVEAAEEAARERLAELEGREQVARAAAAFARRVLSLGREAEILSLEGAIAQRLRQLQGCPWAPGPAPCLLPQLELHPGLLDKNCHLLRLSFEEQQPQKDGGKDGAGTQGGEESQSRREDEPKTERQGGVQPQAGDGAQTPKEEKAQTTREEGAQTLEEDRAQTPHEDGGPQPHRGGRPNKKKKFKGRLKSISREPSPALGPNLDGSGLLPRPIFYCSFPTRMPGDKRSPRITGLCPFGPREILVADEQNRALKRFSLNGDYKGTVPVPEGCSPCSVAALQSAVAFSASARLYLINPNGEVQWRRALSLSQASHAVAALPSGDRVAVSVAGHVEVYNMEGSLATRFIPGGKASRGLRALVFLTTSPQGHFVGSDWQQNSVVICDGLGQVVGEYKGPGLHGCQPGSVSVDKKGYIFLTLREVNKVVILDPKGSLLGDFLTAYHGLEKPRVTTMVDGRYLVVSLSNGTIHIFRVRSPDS
UniProt Q9BSW2: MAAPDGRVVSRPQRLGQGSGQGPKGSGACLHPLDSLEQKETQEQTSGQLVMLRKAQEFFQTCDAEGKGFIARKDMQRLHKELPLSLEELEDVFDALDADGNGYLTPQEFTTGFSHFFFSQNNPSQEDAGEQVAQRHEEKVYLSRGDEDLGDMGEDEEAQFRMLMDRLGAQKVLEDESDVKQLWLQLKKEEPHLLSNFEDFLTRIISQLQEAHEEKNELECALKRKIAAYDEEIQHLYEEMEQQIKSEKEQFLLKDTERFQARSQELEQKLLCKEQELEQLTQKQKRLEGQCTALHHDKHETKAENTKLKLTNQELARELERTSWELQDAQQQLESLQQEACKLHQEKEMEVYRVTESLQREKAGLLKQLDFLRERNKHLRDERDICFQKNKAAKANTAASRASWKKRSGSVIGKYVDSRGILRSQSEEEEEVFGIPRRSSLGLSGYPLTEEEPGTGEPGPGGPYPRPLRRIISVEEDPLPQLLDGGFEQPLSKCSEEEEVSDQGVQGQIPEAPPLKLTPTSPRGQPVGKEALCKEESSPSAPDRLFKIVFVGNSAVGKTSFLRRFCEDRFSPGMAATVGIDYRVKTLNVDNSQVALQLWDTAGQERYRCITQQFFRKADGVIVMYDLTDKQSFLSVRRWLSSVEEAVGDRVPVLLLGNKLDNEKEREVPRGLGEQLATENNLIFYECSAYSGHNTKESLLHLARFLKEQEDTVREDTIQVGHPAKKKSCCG
UniProt Q9BTT0: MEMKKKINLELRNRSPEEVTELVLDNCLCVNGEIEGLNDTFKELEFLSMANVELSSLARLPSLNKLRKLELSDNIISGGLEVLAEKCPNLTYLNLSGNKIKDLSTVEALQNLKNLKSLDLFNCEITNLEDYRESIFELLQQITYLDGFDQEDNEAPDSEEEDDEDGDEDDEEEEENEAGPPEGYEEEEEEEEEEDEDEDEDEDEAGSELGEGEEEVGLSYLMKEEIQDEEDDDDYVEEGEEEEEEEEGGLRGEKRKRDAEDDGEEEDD
UniProt Q99735: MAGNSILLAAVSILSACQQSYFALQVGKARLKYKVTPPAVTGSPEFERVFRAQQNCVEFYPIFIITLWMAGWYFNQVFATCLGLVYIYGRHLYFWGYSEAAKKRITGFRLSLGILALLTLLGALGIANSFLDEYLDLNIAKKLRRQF
UniProt Q9BUI4: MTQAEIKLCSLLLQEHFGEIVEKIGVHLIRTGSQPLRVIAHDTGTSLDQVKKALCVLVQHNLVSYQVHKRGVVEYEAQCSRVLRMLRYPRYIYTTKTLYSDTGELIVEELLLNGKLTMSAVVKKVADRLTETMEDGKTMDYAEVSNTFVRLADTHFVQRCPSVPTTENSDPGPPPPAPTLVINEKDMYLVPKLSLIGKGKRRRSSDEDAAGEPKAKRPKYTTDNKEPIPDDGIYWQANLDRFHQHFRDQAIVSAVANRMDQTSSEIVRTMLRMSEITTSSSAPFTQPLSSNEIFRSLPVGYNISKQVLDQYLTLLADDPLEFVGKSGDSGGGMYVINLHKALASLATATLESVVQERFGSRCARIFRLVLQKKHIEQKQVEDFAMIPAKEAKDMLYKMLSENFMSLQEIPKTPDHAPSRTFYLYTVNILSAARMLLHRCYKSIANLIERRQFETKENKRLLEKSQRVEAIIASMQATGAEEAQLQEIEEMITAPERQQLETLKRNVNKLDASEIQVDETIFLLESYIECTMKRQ

The other results are listed elsewhere or left out. This is a noisy data set.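 Many melting curves are irregular; where none melted, Tm was taken as 64 °C.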
Each target was assayed with CCc1cnccc1C(=O)Nc1cc2c(cc1F)NC(=O)CC2 (assay: melting temperature shift (DMSO Tm minus MBE1-treated Tm) in cellular thermal proteome profiling; higher = less thermal stabilization by MBE1 (negative = stabilized by MBE1)). Settings: A375; MBE1 concentration: 100 nM.
Work on UniProt Q99719 yielded a melting temperature shift of -0.563 °C.
For UniProt Q9BS16, the melting temperature shift was -4.79 °C.
AIF1L (UniProt Q9BQI0) gave a melting temperature shift of -2.06 °C.
Work on GTPBP2 (UniProt Q9BX10) yielded a melting temperature shift of -2.1 °C.
MND1 (UniProt Q9BWT6) was tested, and the melting temperature shift was -1.74 °C.
Work on DCUN1D5 (UniProt Q9BTE7) yielded a melting temperature shift of 0.102 °C.
MECR (UniProt Q9BV79) was tested, and the melting temperature shift was 0.0268 °C.
In the case of C2ORF49 (UniProt Q9BVC5), the melting temperature shift is reported as 0.22 °C.
HGH1 (UniProt Q9BTY7) gave a melting temperature shift of -0.403 °C.
With RUSC1 (UniProt Q9BVN2) the melting temperature shift was -1.27 °C.
FYCO1 (UniProt Q9BQS8) was tested, and the melting temperature shift was 0.879 °C.
NUP58 (UniProt Q9BVL2) was tested, and the melting temperature shift was -0.299 °C.
Work on HIRIP3 (UniProt Q9BW71) yielded a melting temperature shift of -0.483 °C.
UniProt Q99622 was tested, and the melting temperature shift was -0.861 °C.
For DUSP23 (UniProt Q9BVJ7), the melting temperature shift was -0.107 °C.
TXNDC17 (UniProt Q9BRA2) showed a melting temperature shift of -0.603 °C.
PELO (UniProt Q9BRX2) was tested, and the melting temperature shift was -0.333 °C.
Target ADPGK (UniProt Q9BRR6) has a melting temperature shift of -1.39 °C.
With RPAP1 (UniProt Q9BWH6) the melting temperature shift was 1.42 °C.
In the case of UniProt Q9BRT8, the melting temperature shift is reported as -1.98 °C.
Target TSEN34 (UniProt Q9BSV6) has a melting temperature shift of -1.52 °C.
For UniProt Q9BY43, the melting temperature shift was -3.14 °C.
In the case of UniProt Q9BVG4, the melting temperature shift is reported as 0.0977 °C.
FERMT1 (UniProt Q9BQL6) was tested, and the melting temperature shift was 0.879 °C.
In the case of CMSS1 (UniProt Q9BQ75), the melting temperature shift is reported as 0.134 °C.
DOHH (UniProt Q9BU89) showed a melting temperature shift of -0.359 °C.
UniProt Q9BSK2 showed a melting temperature shift of 2.6 °C.
In the case of UniProt Q99877, the melting temperature shift is reported as 0.457 °C.
In the case of UniProt Q9BRX9, the melting temperature shift is reported as 0.725 °C.
Target UniProt Q9BXY0 has a melting temperature shift of -0.604 °C.
TRIM56 (UniProt Q9BRZ2) showed a melting temperature shift of 0.444 °C.
For TUBB6 (UniProt Q9BUF5), the melting temperature shift was -1.26 °C.
With UniProt Q9BRJ7 the melting temperature shift was -0.572 °C.
Work on UniProt Q9BSW2 yielded a melting temperature shift of 0.843 °C.
ANP32E (UniProt Q9BTT0) gave a melting temperature shift of -0.359 °C.
UniProt Q99735 was tested, and the melting temperature shift was -2.72 °C.
Target POLR3C (UniProt Q9BUI4) has a melting temperature shift of -0.672 °C.
With MTA3 (UniProt Q9BTC8) the melting temperature shift was -0.614 °C.

Same assay, conditions: A375; MBE1 concentration: 1 uM
UniProt Q99719 gave a melting temperature shift of -0.181 °C.
For UniProt Q9BS16, the melting temperature shift was -5.11 °C.
AIF1L (UniProt Q9BQI0) was tested, and the melting temperature shift was -1.25 °C.
GTPBP2 (UniProt Q9BX10) was tested, and the melting temperature shift was -0.427 °C.
Target MND1 (UniProt Q9BWT6) has a melting temperature shift of -1.99 °C.
For DCUN1D5 (UniProt Q9BTE7), the melting temperature shift was -0.231 °C.
For MECR (UniProt Q9BV79), the melting temperature shift was -0.0604 °C.
In the case of C2ORF49 (UniProt Q9BVC5), the melting temperature shift is reported as -0.495 °C.
Work on HGH1 (UniProt Q9BTY7) yielded a melting temperature shift of -0.45 °C.
Target RUSC1 (UniProt Q9BVN2) has a melting temperature shift of -0.301 °C.
FYCO1 (UniProt Q9BQS8) was tested, and the melting temperature shift was 0.678 °C.
In the case of NUP58 (UniProt Q9BVL2), the melting temperature shift is reported as 0.116 °C.
HIRIP3 (UniProt Q9BW71) showed a melting temperature shift of 0.782 °C.
Work on UniProt Q99622 yielded a melting temperature shift of -1.98 °C.
DUSP23 (UniProt Q9BVJ7) was tested, and the melting temperature shift was 0.772 °C.
With TXNDC17 (UniProt Q9BRA2) the melting temperature shift was 0.101 °C.
PELO (UniProt Q9BRX2) showed a melting temperature shift of -0.436 °C.
Target ADPGK (UniProt Q9BRR6) has a melting temperature shift of 0.513 °C.
Target RPAP1 (UniProt Q9BWH6) has a melting temperature shift of 0.647 °C.
With UniProt Q9BRT8 the melting temperature shift was -0.127 °C.
For TSEN34 (UniProt Q9BSV6), the melting temperature shift was 0.00641 °C.
Target UniProt Q9BY43 has a melting temperature shift of -3.72 °C.
UniProt Q9BVG4 was tested, and the melting temperature shift was -0.604 °C.
Target FERMT1 (UniProt Q9BQL6) has a melting temperature shift of 0.134 °C.
Target CMSS1 (UniProt Q9BQ75) has a melting temperature shift of 0.318 °C.
Work on DOHH (UniProt Q9BU89) yielded a melting temperature shift of -0.128 °C.
Target UniProt Q9BSK2 has a melting temperature shift of 0.258 °C.
Work on UniProt Q99877 yielded a melting temperature shift of -0.281 °C.
For UniProt Q9BRX9, the melting temperature shift was -0.171 °C.
UniProt Q9BXY0 showed a melting temperature shift of 0.741 °C.
In the case of TRIM56 (UniProt Q9BRZ2), the melting temperature shift is reported as -0.0366 °C.
Target TUBB6 (UniProt Q9BUF5) has a melting temperature shift of 0.44 °C.
UniProt Q9BRJ7 showed a melting temperature shift of 0.763 °C.
Work on UniProt Q9BSW2 yielded a melting temperature shift of -0.22 °C.
Work on ANP32E (UniProt Q9BTT0) yielded a melting temperature shift of -0.333 °C.
UniProt Q99735 was tested, and the melting temperature shift was -2.6 °C.
Target POLR3C (UniProt Q9BUI4) has a melting temperature shift of -0.623 °C.
MTA3 (UniProt Q9BTC8) was tested, and the melting temperature shift was -0.421 °C.

— the supplement of paper PMC12595434, “Development of retinoid nuclear receptor pathway antagonists through targeting aldehyde dehydrogenase 1A3” (iScience, 2025)
